{"source": "patent US20100193777A1", "about": "“METHOD OF PRODUCING A DESUBSTITUTED COMPOUND, ORGANIC SEMICONDUCTOR FILM AND METHOD OF PRODUCING THE SAME” (FUJIFILM Corporation, priority 2007, published 2010)", "assay": "FET characteristics of cast thin film on bottom contact-type substrate", "details": "for carrier mobility: film cast from pure water solution, after heat treatment", "key": {"[1]": {"details": "sample from chloroform coating liquid"}, "[2]": {"details": "sample from pure water coating liquid"}}, "data": [{"molecule": "[Cu+2].c1ccc2c(c1)-c1nc-2nc2[n-]c(nc3nc(nc4[n-]c(n1)c1ccccc41)-c1ccccc1-3)c1ccccc21", "note": "[cupper phthalocyanine]", "values": [{"measurement": "FET characteristics after heat treatment", "setting": "[1]", "value": "no FET characteristics"}, {"measurement": "FET characteristics before heat treatment", "setting": "[1]", "value": "no FET characteristics"}]}, {"molecule": "[Zn+2].c1ccc2c(c1)-c1nc-2nc2[n-]c(nc3nc([n-]c4nc(n1)-c1ccccc1-4)-c1ccccc1-3)c1ccccc21", "note": "[zinc phthalocyanine]", "values": [{"measurement": "FET characteristics after heat treatment", "setting": "[1]", "value": "no FET characteristics"}, {"measurement": "FET characteristics before heat treatment", "setting": "[1]", "value": "no FET characteristics"}, {"measurement": "FET characteristics after heat treatment", "setting": "[2]", "value": "no FET characteristics"}, {"measurement": "FET characteristics before heat treatment", "setting": "[2]", "value": "no FET characteristics"}]}, {"molecule": "zinc phthalocyanine-tetrasulfonic acid [Exemplified compound (53)]", "values": [{"measurement": "carrier mobility", "value": "1.1×10^−7 cm^2/Vs"}, {"measurement": "FET characteristics before heat treatment", "setting": "[2]", "value": "no FET characteristics"}]}, {"molecule": "c1ccc2c(c1)-c1nc-2nc2[nH]c(nc3nc(nc4[nH]c(n1)c1ccccc41)-c1ccccc1-3)c1ccccc21", "note": "[metal-free phthalocyanine]", "values": [{"measurement": "FET characteristics after heat treatment", "setting": "[1]", "value": "no FET characteristics"}, {"measurement": "FET characteristics before heat treatment", "setting": "[1]", "value": "no FET characteristics"}, {"measurement": "FET characteristics after heat treatment", "setting": "[2]", "value": "no FET characteristics"}, {"measurement": "FET characteristics before heat treatment", "setting": "[2]", "value": "no FET characteristics"}]}, {"molecule": "metal-free phthalocyanine-tetrasulfonic acid [Exemplified compound (54)]", "values": [{"measurement": "carrier mobility", "value": "2.7×10^−6 cm^2/Vs"}, {"measurement": "FET characteristics before heat treatment", "setting": "[2]", "value": "no FET characteristics"}]}]}
